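Primary screen of methionyl-tRNA synthetase; the read-out is not stated. Target: Methionyl-tRNA synthetase (putative), Leishmania donovani (UniProt E9BF75). The test concentration is not given. Values are per cent inhibition. Size under these conditions: about 68,000 compounds, about 24 of them at 50% or above in at least one test.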

Chains of the proteins cited; added tags and fusions are not shown.
UniProt E9BF75, entry or part of it: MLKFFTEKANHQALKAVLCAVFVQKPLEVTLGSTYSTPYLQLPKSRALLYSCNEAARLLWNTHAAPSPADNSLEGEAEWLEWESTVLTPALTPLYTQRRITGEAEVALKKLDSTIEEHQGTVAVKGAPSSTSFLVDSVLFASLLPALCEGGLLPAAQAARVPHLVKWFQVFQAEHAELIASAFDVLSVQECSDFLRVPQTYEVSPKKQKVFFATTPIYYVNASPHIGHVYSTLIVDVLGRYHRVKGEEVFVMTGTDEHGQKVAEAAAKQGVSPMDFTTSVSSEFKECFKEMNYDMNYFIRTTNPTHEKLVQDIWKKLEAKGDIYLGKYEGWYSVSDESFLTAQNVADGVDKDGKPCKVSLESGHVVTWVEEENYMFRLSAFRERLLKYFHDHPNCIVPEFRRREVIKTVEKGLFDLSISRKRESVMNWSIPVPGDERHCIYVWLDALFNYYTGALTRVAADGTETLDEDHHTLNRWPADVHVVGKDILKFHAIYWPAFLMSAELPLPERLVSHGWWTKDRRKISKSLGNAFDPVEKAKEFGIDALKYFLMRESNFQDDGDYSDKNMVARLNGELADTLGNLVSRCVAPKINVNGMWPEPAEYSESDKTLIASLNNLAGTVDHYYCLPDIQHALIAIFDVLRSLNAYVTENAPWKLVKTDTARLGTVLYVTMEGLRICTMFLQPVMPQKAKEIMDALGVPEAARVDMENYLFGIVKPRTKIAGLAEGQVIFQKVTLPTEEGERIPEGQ

Results are percentages, as filed. The controls that fix the scale are not given in the record; negative values are as filed. This is an unselected part of the compounds tested.

Compound	Inhibition
O=C(c1ccc(F)c(F)c1)N1CCCC(Nc2ccc(F)cc2)C1 (centres unmarked)	11.23
CS(=O)(=O)c1ccccc1NCc1ccc(Cn2ccnc2)cc1	18.28
CC(C)CC(CCO)CNC(=O)N1CCOC2(CCCC2)C1 (centres unmarked)	3.495
COCCCN(Cc1ccccn1)Cc1ccnn1C1CCCCO1 (centres unmarked)	5.319
Cn1cc(C(=O)NCc2cn3c(n2)CN(CC2CCOC2)CC3)cn1 (centres unmarked)	16.77
Cc1nc(C)n(CCC(=O)N2CCc3ncc(Cl)cc3C2)n1	14.15
Cc1nn(C)c2nc(N3CCCCC3c3ccc(F)cc3)sc12 (centres unmarked)	28.27
COCCN1C(=O)c2ccc(C(=O)NCCc3c[nH]cn3)cc2C1=O	5.46
N#Cc1cccc(C(=O)N2C[C@H]3CC[C@@H]2CN(C(=O)C2CCC2)C3)c1	18.06
O=C([C@@H]1C[C@@H]2CCN(C3CCOCC3)C[C@@H]2O1)N1CCOCC1	15.23
CC(=O)N1CC[C@@H]2CN(Cc3ccncc3)S(=O)(=O)[C@@H]2CC1	10.73
COCCC(=O)N1CC2(CCN(Cc3cccc(Cl)c3)CC2)C1	12.89
CCOC(=O)c1sc2ccsc2c1CNC(=O)COC	9.206
O=S(=O)(C/C=C/c1ccccc1)Cc1nc(C2CC2)no1	5.923
CCCNc1ncc(CN2CCOC(Cc3cccc(F)c3)C2)cn1 (centres unmarked)	7.563
COc1ccccc1N1CCN(C(=O)CSCC2CC2)C(C)C1 (centres unmarked)	4.02
O=C(NCCN1C(=O)c2ccccc2C1=O)c1scnc1Cl	21.68
N#Cc1cccc(CN2CC[C@@H]3CO[C@@H](CN4CCCC4)[C@@H]3C2)c1	14.29
CO[C@@H]1CCN(Cc2c(C)noc2C)[C@@H]2CN(Cc3ccco3)C[C@@H]21	15.85
Fc1cccc(N2CCCC3(CN(Cc4cccnc4)CCO3)C2)c1 (centres unmarked)	22.53
Cc1nc(C(=O)N2CCCC2c2noc(C3CC3)n2)c[nH]1 (centres unmarked)	18.79
O=C(c1ccc(OCC2CC2)nc1)N1CCCC(n2ccnc2)C1 (centres unmarked)	7.362
CC(C)c1nc2n(n1)CC(NCc1nnc(C(C)C)o1)CC2 (centres unmarked)	8.497
CN1CCCC1CNC(=O)CCCOc1ccc(Cl)cc1 (centres unmarked)	17.49
CCO[C@H]1C[C@@H](O)C12CCN(C1Cc3ccccc3C1)CC2	7.107
Cc1cc(C)cc(C(C(=O)O)N(C)CCCN2CCOCC2)c1 (centres unmarked)	8.052
CN(CC(=O)N1CC(C)(C)[C@@](C)(O)C1)Cc1ccncc1	11.72
O[C@@H]1CN(c2nc3ccccc3o2)CC[C@H]1c1ccc2c(c1)OCO2	9.034
CC(C)CN1CCN(C(=O)c2ccncc2F)Cc2cccnc21	20.46
CC1CCN(C(=O)CSCCN2CCOCC2)CC1	11.53
Cc1ccc(CN2CCN(c3ncnc4[nH]cnc34)CC2CCO)cc1 (centres unmarked)	5.797
COc1ccc(C(C#N)NC(=O)CC2=CCCCC2)c(OC)c1 (centres unmarked)	13.35
Cc1ncsc1CCN(C)C(=O)c1ccc(Cn2cnnn2)cc1	16.77
CCN1C(=O)C[C@@H]2[C@@H]1CCN2S(=O)(=O)c1cccc(C)c1	1.667
O=S(=O)(Nc1cnn(C2CCOCC2)c1)c1ccc(F)c(F)c1	14.71
CN1CC2(CCN(C(=O)c3ccc(=O)n(C)c3)CC2)CC1=O	10.16
O=C(NCc1nn(-c2ccccc2)c2c1CCC2)N1CCSCC1	8.589
O=C(Nc1cc(C2CCOCC2)[nH]n1)c1cc[nH]n1	9.774
CCOc1ccc(C(=O)N2C[C@H]3CC[C@@H]2CN(C(=O)C2CCC2)C3)cc1	12.04
COC(=O)[C@H]1C[C@@H](O)CCN1S(=O)(=O)c1ccc(F)cc1F	9.966
CNC(=O)[C@@H]1C[C@H](N)CN1Cc1cc2cc(OC)ccc2nc1O	-10.6
COc1c(F)cc(NC(=O)NCc2nncn2C2CC2)cc1F	10.6
COc1ccc2cc(NC(=O)CCNc3ncccn3)cnc2c1	8.182
Cc1c[nH]nc1C1CCCN1Cc1ccncc1 (centres unmarked)	21.27
CN(C)CCNCC1COCc2c(-c3ccnn3C)nnn2C1 (centres unmarked)	2.584
CN1CCC/C1=N\S(=O)(=O)c1ccc(NC(=O)c2ccsc2)cc1	13.11
Cc1nc(C)n(C2CCCN(C(=O)Cc3csc(C(C)C)n3)C2)n1 (centres unmarked)	11.35
O=C(NCCn1ccc(-c2ccccn2)n1)C1CC1	15.69
COc1ccccc1CN(CC1CCCO1)C(=O)c1csnn1 (centres unmarked)	10.15
COc1cccc(-n2nnc(C(=O)N3CCCCCC3)c2C)c1	11.72

Once more, the final 4:

Compound	Inhibition
Cc1nc(C)n(C2CCCN(C(=O)Cc3csc(C(C)C)n3)C2)n1 (centres unmarked)	11.35
O=C(NCCn1ccc(-c2ccccn2)n1)C1CC1	15.69
COc1ccccc1CN(CC1CCCO1)C(=O)c1csnn1 (centres unmarked)	10.15
COc1cccc(-n2nnc(C(=O)N3CCCCCC3)c2C)c1	11.72

From ChEMBL document CHEMBL3988442, “University of Dundee, Small-Polar-MMV Screening Library” (2021).